Experimental data reported in PubChem BioAssay AID485298 (National Center for Advancing Translational Sciences (NCATS), 2010).
Out of some 320,000 compounds screened, about 740 (0.23%) were called active. This list was built around the results that the source calls inconclusive (neither active nor inactive); the mix of calls is not that of the screen. Calls come from the whole dose curve; as a rule, active = well fitted activation curve with a large enough effect; inconclusive = small, poorly fitted or top-dose-only effect; inactive = no such curve, though single readings can be large or run the other way. Potencies of inconclusive entries are doubtful fits and often do not repeat.

experiment: qHTS Assay for Small Molecule Inhibitors of Mitochondrial Division or Activators of Mitochondrial Fusion; note: nearly all actives have a fitted effect of over 45% in size; settings: S. cerevisiae fusion-defective mutant growth rescue, CellTiterGlo 48 h; series mostly up to 46.1 µM
How it was run: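 Compounds are tested for their ability to restore growth of mitochondrial fusion-defective yeast strains at non-permissive 37C in YPEG medium over 48 hours. Viability is quantified by luciferase luminescence.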
Potency is the fitted concentration of half-maximal effect.

Compound	Potency
CCOC(=O)N=Nc1c(O)n(CC(=O)OC)c2ccccc12	inconclusive: 12.6 µM [activator, single point]
Cc1ccc2cc(CN(CC3CCCO3)C(=S)Nc3ccccc3)c(=O)[nH]c2c1C (centres undefined)	inconclusive: 31.6 µM [activator, single point]
O=c1c2c3c(sc2nc2n1CCCC2)CCCCC3	inconclusive: 15.8 µM [activator, single point]
CC1CCCCC1NC(=O)/C(C#N)=C/c1ccc(F)c(F)c1 (centres undefined)	inconclusive: 12.6 µM [activator, partial curve]
COc1cc2[nH]c(=S)nc(NCc3ccccn3)c2cc1OC	inconclusive: 10 µM [activator, partial curve]
COc1ccc(C2CC(c3ccccc3)=NN2c2ccc(N)cc2)cc1 (centres undefined)	inconclusive: 17.8 µM [activator, single point]
COc1ccc(NC(=O)CN(C)C(=O)c2ccccc2CCc2ccccc2)cc1	inconclusive: 20 µM [activator, single point]
Cc1ccc(Cl)cc1Nc1nc(-c2cccnc2)cs1	inactive
Cc1nn(C)c(C)c1Nc1ccc(N2C(=O)C3C4C=CC(C4)C3C2=O)cc1[N+](=O)[O-] (centres undefined)	inconclusive: 35.5 µM [activator, single point]
COc1ccc(-c2nc(N)nc(C(F)(F)F)c2-c2ccccc2OC)c(O)c1	inconclusive: 20 µM [activator, partial curve, poor fit]
CC(C)(C)c1ccc(/C=N/NC(=S)NC2CCCCC2)cc1	inconclusive: 11.2 µM [activator, partial curve]
COc1cc(C#Cc2c(-c3cncn3C)n(C)c3ccc(-c4cnc(OC)nc4)cc23)cc(OC)c1	inconclusive: 22.4 µM [activator, single point]
O=c1c2cnn(-c3ccccc3)c2ncn1CCc1ccccc1	inconclusive: 2.82 µM [activator, full curve]
COc1ccc(C2CC2/C(=N/OC(=O)c2cccs2)c2ccccc2)cc1 (centres undefined)	inconclusive: 4.47 µM [activator, full curve, poor fit]
COc1ccc(CN(C)C(=O)CCN(c2ccccc2)S(=O)(=O)c2ccc(C)cc2)c(OC)c1	inconclusive: 35.5 µM [activator, single point]
CNC(=S)N(C)[C@H]1c2c(ccc3ccccc23)OC[C@H]1CO	inconclusive: 15.8 µM [activator, single point]
COc1cc(NC(=O)c2cc3cccc(OC)c3o2)cc(C(=O)Nc2cccc(C(F)(F)F)c2)c1	inactive
Nc1ccc(C(=O)OCC(=O)Nc2ccc([N+](=O)[O-])cc2C(F)(F)F)cc1	inconclusive: 35.5 µM [activator, single point]
COc1ccc(N2CCN(C(c3ccccc3)c3nnnn3Cc3ccc(F)cc3)CC2)cc1 (centres undefined)	inconclusive: 11.2 µM [activator, partial curve]
CN(C)C(CNc1ncnc2sc3c(c12)CCCC3)c1ccco1 (centres undefined)	inactive
CC1=C(C(=O)OC2CCCC2)C(c2ccc(C)o2)C2=C(CC(c3cccs3)CC2=O)N1 (centres undefined)	inconclusive: 11.2 µM [activator, partial curve]
CCNC(=O)N1CCN(CCCC(c2ccc(F)cc2)c2ccc(F)cc2)CC1	inconclusive: 20.6 µM [activator, single point]
COc1cc2c(cc1OC)-c1cc(=Nc3c(C)cc(C)cc3C)n(C)c(=O)n1CC2	active: 18.4 µM

Compound	Potency
O=C(c1cc2ccccc2oc1=O)N(Cc1ccccc1)Cc1ccc2c(c1)OCO2	inconclusive: 35.5 µM [activator, single point]
O=C(NCC1CCCO1)c1cc2c([nH]c3ccccc32)c(-c2cccc(Br)c2)n1 (centres undefined)	inactive
COC(=O)[C@H](C)[C@H]1C[C@]1(C)[C@H](NC(=O)OCc1ccccc1)c1ccccc1	inconclusive: 20 µM [activator, single point]
O=C1C=C(c2ccccc2)C[C@@H](c2ccc(Cl)cc2)C1	inconclusive: 22.4 µM [activator, single point]
Cc1c(C(=O)c2cccc([N+](=O)[O-])c2)c2ccccn2c1CCC#N	inconclusive: 22.4 µM [activator, single point]
CC(C)Cn1c(N)c(C(=O)NCC2CCCO2)c2nc3ccccc3nc21 (centres undefined)	inactive
O=c1c2ccccc2sn1-c1cc(S(=O)(=O)N2CCOCC2)ccc1N1CCCC1	inconclusive: 11.2 µM [activator, partial curve]
CCOc1ccc(-c2cccc(NC(=O)COc3ccccc3)c2)nn1	inconclusive: 15.8 µM [activator, single point]
COc1cc2c(cc1OC)CN(C(=O)c1ccc(-c3ccccc3)cc1)CC2	inconclusive: 0.562 µM [activator, full curve, poor fit]
COc1ccc2nc(NC(=O)C3CCCN(S(=O)(=O)c4cccs4)C3)sc2c1 (centres undefined)	inconclusive: 20 µM [activator, single point]
CCN=C1S/C(=C\c2ccc(O)c(OCC)c2)C(=O)N1CC	inconclusive: 10 µM [activator, partial curve]
Cc1ccc(/C(=N\O)c2oc3c(C)c4oc(=O)cc(C)c4cc3c2C)cc1	active: 7.08 µM
Cc1nn(-c2nc3ccccc3n2Cc2ccccc2)c2c1C(=O)CC(C)(C)C2	inconclusive: 20 µM [activator, partial curve]
COCCCNc1nc2ccccc2nc1NS(=O)(=O)c1cccc(Cl)c1	inconclusive: 35.5 µM [activator, partial curve]
CC(=O)c1c(C)[nH]c(C(=O)OCc2cccc(C)c2)c1C	active: 35.5 µM
N#Cc1cn(CCOc2ccccc2F)c2ccccc12	inconclusive: 28.2 µM [activator, single point]
CN(c1ccccc1)S(=O)(=O)c1ccc(C(=O)Nc2ccncc2)cc1	inactive
O=C(Nc1ccccc1C(=O)Nc1nnc(C(F)(F)F)s1)c1ccccc1	inconclusive: 3.98 µM [activator, full curve]
COc1ccc(N(C(=O)Cc2cccs2)C(C(=O)NC2CCCC2)c2ccncc2)cc1 (centres undefined)	inactive
Cc1ccc(OCC(=O)NCCNC(=O)c2ccccn2)cc1	inactive
COCc1c(C(=O)NCCOc2ccc(Cl)cc2)oc2ccccc12	inconclusive: 17.8 µM [activator, single point]
Cc1cccc(NC(=O)C2CCCN(c3ncnc4c3nc3n4CCCCC3)C2)n1 (centres undefined)	inactive
CNS(=O)(=O)c1ccc(OC)c(-c2nnc3c4ccccc4c(C)nn23)c1	inactive

Arranged by number of heavy atoms (low to high): 12 of the compounds above
Compound	Potency
O=C1C=C(c2ccccc2)C[C@@H](c2ccc(Cl)cc2)C1	inconclusive: 22.4 µM [activator, single point]
CC(=O)c1c(C)[nH]c(C(=O)OCc2cccc(C)c2)c1C	active: 35.5 µM
CCN=C1S/C(=C\c2ccc(O)c(OCC)c2)C(=O)N1CC	inconclusive: 10 µM [activator, partial curve]
Cc1ccc(OCC(=O)NCCNC(=O)c2ccccn2)cc1	inactive
COCc1c(C(=O)NCCOc2ccc(Cl)cc2)oc2ccccc12	inconclusive: 17.8 µM [activator, single point]
CN(c1ccccc1)S(=O)(=O)c1ccc(C(=O)Nc2ccncc2)cc1	inactive
CNS(=O)(=O)c1ccc(OC)c(-c2nnc3c4ccccc4c(C)nn23)c1	inactive
COc1ccc2nc(NC(=O)C3CCCN(S(=O)(=O)c4cccs4)C3)sc2c1 (centres undefined)	inconclusive: 20 µM [activator, single point]
O=C(NCC1CCCO1)c1cc2c([nH]c3ccccc32)c(-c2cccc(Br)c2)n1 (centres undefined)	inactive
O=c1c2ccccc2sn1-c1cc(S(=O)(=O)N2CCOCC2)ccc1N1CCCC1	inconclusive: 11.2 µM [activator, partial curve]
O=C(c1cc2ccccc2oc1=O)N(Cc1ccccc1)Cc1ccc2c(c1)OCO2	inconclusive: 35.5 µM [activator, single point]
COc1ccc(N(C(=O)Cc2cccs2)C(C(=O)NC2CCCC2)c2ccncc2)cc1 (centres undefined)	inactive

The listing continues.

Compound	Potency
CN(C)c1ccc(C(=O)NN2C(=O)c3ccccc3C2=O)cc1	inconclusive: 20 µM [activator, single point]
COc1ccccc1/C=N/Nc1nccnc1Cl	inactive
CC(Cc1cccs1)NC(=O)Nc1ccc(Cl)c(Cl)c1 (centres undefined)	inactive
OCC1CCCCN1CCNCc1cn[nH]c1-c1cccc2ccccc12 (centres undefined)	inconclusive: 35.5 µM [activator, single point]
CC(C)CN1C(=O)C(=O)N(CC(=O)NC(C)CCc2ccccc2)C1=O (centres undefined)	inactive
CCN1C(=O)S/C(=C/c2ccc(Sc3nc4ccccc4[nH]3)o2)C1=O	inconclusive: 35.5 µM [activator, single point]
Cc1nc([N+](=O)[O-])c(N2CCN(Cc3ccccc3)CC2)n1Cc1ccccc1	inactive
CC1(C)CC2(CC(c3ccccc3)c3ccc(O)cc3O2)NC(=S)N1 (centres undefined)	inactive
O=C(Nc1ccc2oc(-c3cccc4ccccc34)nc2c1)c1ncn[nH]1	inactive
Cc1nn(-c2cccc(C(F)(F)F)c2)c(=O)c2noc(C)c12	inactive
CCCCN(Cc1ccccc1)S(=O)(=O)c1cc(Br)cc2c1N(C(C)=O)C(C)C2 (centres undefined)	inconclusive: 11.2 µM [activator, partial curve]
CCCc1noc2c1/C(=N\O)CC(CC(C)SCC)C2 (centres undefined)	inconclusive: 11.2 µM [activator, single point]
C=CCn1c(C)cc(C2=NNC(=NCc3ccccc3)SC2)c1C	inconclusive: 11.2 µM [activator, partial curve]
O=C(c1ccc(N2CCCC2)c([N+](=O)[O-])c1)N1CCc2ccccc2C1	inconclusive: 15.8 µM [activator, single point]
FC(F)(F)c1ccccc1-n1ccnc1	inactive
COc1ccc2oc(C(=O)N3CCCc4ccccc43)c(C)c2c1	inconclusive: 17.8 µM [activator, single point]
COc1cc2cc(C(=O)N3CCOCC3)cc(-c3ccc(C)cc3)c2cc1OC	inconclusive: 14.1 µM [activator, partial curve]
COc1ccc(NC(=O)c2ccco2)cc1N	inconclusive: 5.62 µM [activator, single point]
CCNC(=O)/C(C#N)=C/c1c(N2CCN(c3ccccc3)CC2)nc2c(C)cccn2c1=O	inactive
CN(C(=O)c1ccccc1F)C(c1ccccc1)c1ccccc1	inconclusive: 15.8 µM [activator, partial curve]
CCCCOC(=O)NS(=O)(=O)c1sc(CC(C)C)cc1-c1ccc(Cn2c(CC)nc3c(C)cc(C)nc32)cc1	inconclusive: 29.1 µM [activator, single point]
O=C(CN1CCOCC1)Nc1nc2cc([N+](=O)[O-])ccc2s1	inconclusive: 35.5 µM [activator, single point]
CN1C(=O)/C(=C/c2cccc(Cl)c2)Sc2ccc(C(=O)N3CCOCC3)cc21	inconclusive: 35.5 µM [activator, single point]

Filtered by structure: the entries above containing bromine
Compound	Potency
O=C(NCC1CCCO1)c1cc2c([nH]c3ccccc32)c(-c2cccc(Br)c2)n1 (centres undefined)	inactive
CCCCN(Cc1ccccc1)S(=O)(=O)c1cc(Br)cc2c1N(C(C)=O)C(C)C2 (centres undefined)	inconclusive: 11.2 µM [activator, partial curve]
